Assay results reported in article PMC9279413.
These are yes or no findings as the source states them, for the method shown. Binding seen in cells or lysates may run through a third protein. Some results given as binding are weak or reduced against the parent protein; the word gives no strength.

Protein sequences, listed by entry. Tags and fused reporters are not part of them.
UniProt Q13546: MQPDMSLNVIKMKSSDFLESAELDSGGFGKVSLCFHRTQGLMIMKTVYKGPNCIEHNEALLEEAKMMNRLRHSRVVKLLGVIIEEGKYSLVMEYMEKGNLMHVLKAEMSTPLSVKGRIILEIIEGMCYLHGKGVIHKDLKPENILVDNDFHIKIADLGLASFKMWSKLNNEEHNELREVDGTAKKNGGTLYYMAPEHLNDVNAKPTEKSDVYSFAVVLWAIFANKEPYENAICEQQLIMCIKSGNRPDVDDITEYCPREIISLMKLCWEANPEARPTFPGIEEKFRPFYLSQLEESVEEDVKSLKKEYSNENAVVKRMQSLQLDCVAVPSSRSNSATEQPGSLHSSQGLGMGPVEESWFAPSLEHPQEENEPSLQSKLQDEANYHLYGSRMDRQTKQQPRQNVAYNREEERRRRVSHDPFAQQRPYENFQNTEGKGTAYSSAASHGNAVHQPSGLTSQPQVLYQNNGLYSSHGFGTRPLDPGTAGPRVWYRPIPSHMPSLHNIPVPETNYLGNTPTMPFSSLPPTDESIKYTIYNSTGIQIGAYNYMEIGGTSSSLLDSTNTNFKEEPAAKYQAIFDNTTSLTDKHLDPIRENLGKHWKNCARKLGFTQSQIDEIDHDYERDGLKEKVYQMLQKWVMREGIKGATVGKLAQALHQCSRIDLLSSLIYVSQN

Columns and labels:
[1] = target: receptor-interacting serine/threonine kinase 1 (RIP1) (human (endogenous in ACHN)) (UniProt Q13546); assay: co-IP; endogenous proteins; ACHN cells exposed to DMSO or rasfonin (6 or 12 μM) for 6 h; lysed in Triton X-100/glycerol buffer; immunoprecipitated with mouse monoclonal antibodies of Grb2, p62, EGFR or RIP1 over 3 h at 4 °C, Protein A- or Protein G-Sepharose 1 h; immunoblot
[2] = target: SQSTM/p62 (p62) (human (endogenous in ACHN)) (UniProt Q13501); assay: as above
[3] = target: epidermal growth factor receptor (EGFR) (human (endogenous in ACHN)) (UniProt P00533); assay: as above
[4] = target: Growth factor receptor bound protein 2 (Grb2) (human (endogenous in ACHN)) (UniProt P62993); assay: as above
[5] = target: SQSTM/p62 (p62) (human (endogenous in ACHN)) (UniProt Q13501); assay: condition: only cells not treated with 12 μM rasfonin; co-IP; as a1, immunoprecipitation with the p62 antibody, from ACHN cells not treated with 12 μM rasfonin (DMSO control or 6 μM rasfonin)

binding [1] | binding [2] | binding [3] | binding [4] | binding [5] | Substance
binds | binds |  |  |  | Growth factor receptor bound protein 2 (Grb2) (from UniProt P62993 1-217)
binds |  | binds | binds |  | SQSTM/p62 (p62) (from UniProt Q13501 1-440)
binds | binds |  |  | no binding | epidermal growth factor receptor (EGFR) (from UniProt P00533 25-1210)
 | binds |  | binds | no binding | receptor-interacting serine/threonine kinase 1 (RIP1) (from UniProt Q13546 1-671)
